Test results taken from PubChem BioAssay AID248 (DTP/NCI, 2004).
The list does not hold the whole screen: it gathers tests that were run many times, whatever their T/C, doses with no T/C, and many T/C values between a quarter and a half above the control. Further doses and runs are listed elsewhere. T/C is the treated group as % of the vehicle group. Some entries give survivors of the animals treated and no T/C: the source files T/C as zero there, which appears to mark a toxic dose or a test without result, not a measured value. Some survivor counts are full or nearly so, which does not show that the dose was tolerated: survival well below the control is almost never listed, so the zero probably covers shortened survival too. Counts of survivors are from the toxicity check (mostly the fifth day) where no day follows; animals may have died later. Schedule codes are those of the source, read here as Q, the interval in days (D) or hours (H), X, the number of doses. Some entries were tested several times; the results are listed from low to high. Where survival is the endpoint, this PubChem deposit counts one and a half times the control or more as active, and values a quarter to a half above the control carry no call in these data; other NCI protocols may use other cut-offs. Brackets with × stand for listed records that agree. Some T/C values carry the count of animals alive at the toxicity check (mostly the fifth day); where none is given, no animal had died by that day.

Test system: L1210 leukemia ip in BDF1 mice, survival T/C
Assay: NCI In Vivo Anticancer Drug Screen. Data for tumor model L1210 Leukemia (intraperitoneal) in B6D2F1 (BDF1) mice
Conditions: T/C endpoint: mean survival time, higher T/C = longer survival
[1] = dose: 200.0 mg/kg/injection, schedule: Q01DX009 (ip), vehicle: Klucel (hydroxypropylcellulose) (HPC)
[2] = dose: 200.0 mg/kg/injection, schedule: Q01DX009 (ip), vehicle: other
[3] = dose: 200.0 mg/kg/injection, schedule: Q01DX001 (ip), vehicle: saline
[4] = dose: 400.0 mg/kg/injection, schedule: Q01DX001 (ip), vehicle: saline
[5] = dose: 200.0 mg/kg/injection, schedule: Q01DX009 (ip), vehicle: saline with Tween-80
[6] = dose: 400.0 mg/kg/injection, schedule: Q01DX009 (ip), vehicle: saline with Tween-80
[7] = dose: 150.0 mg/kg/injection, schedule: Q01DX001 (ip), vehicle: saline
[8] = dose: 300.0 mg/kg/injection, schedule: Q01DX001 (ip), vehicle: saline
[9] = dose: 25.0 mg/kg/injection, schedule: Q01DX009 (ip), vehicle: saline with Tween-80
[10] = dose: 200.0 mg/kg/injection, schedule: Q01DX009 (ip), vehicle: saline
[11] = dose: 100.0 mg/kg/injection, schedule: Q01DX009 (ip), vehicle: Klucel (hydroxypropylcellulose) (HPC)
[12] = dose: 400.0 mg/kg/injection, schedule: Q01DX009 (ip), vehicle: Klucel (hydroxypropylcellulose) (HPC)
[13] = dose: 100.0 mg/kg/injection, schedule: Q04DX003 (ip), vehicle: Klucel (hydroxypropylcellulose) (HPC)
[14] = dose: 400.0 mg/kg/injection, schedule: Q04DX003 (ip), vehicle: Klucel (hydroxypropylcellulose) (HPC)
[15] = dose: 400.0 mg/kg/injection, schedule: Q04DX003 (ip), vehicle: saline with Tween-80
[16] = dose: 200.0 mg/kg/injection, schedule: Q04DX003 (ip), vehicle: Klucel (hydroxypropylcellulose) (HPC)
[17] = dose: 400.0 mg/kg/injection, schedule: Q04DX003 (ip), vehicle: saline

CCCCN(C)N=Nc1ccccc1C(N)=O
T/C (dose: 89.0 mg/kg/injection, schedule: Q01DX009 (ip), vehicle: other): 134 % of control | T/C (dose: 133.0 mg/kg/injection, schedule: Q01DX009 (ip), vehicle: Klucel (hydroxypropylcellulose) (HPC)): 128 % of control [5 of 6 alive] | T/C (dose: 133.0 mg/kg/injection, schedule: Q01DX009 (ip), vehicle: other): 126 % of control | survivor count [1]: 2 of 6 | T/C [2]: 137 % of control | T/C (dose: 600.0 mg/kg/injection, schedule: Q01DX001 (ip), vehicle: other): 136 % of control

CN(C)c1ccc(C(=C2C=CC(=[N+](C)C)C=C2)c2ccccc2Cl)cc1
survivor count [3]: 0 of 4 | survivor count [4]: 0 of 4

CCN(CCCl)CCCNc1c2ccccc2nc2c1ccc1cccnc12
survivor count (dose: 2.5 mg/kg/injection, schedule: Q01DX009 (ip), vehicle: saline): 4 of 6 | survivor count (dose: 5.0 mg/kg/injection, schedule: Q01DX009 (ip), vehicle: saline): 1 of 6 | survivor count (dose: 7.5 mg/kg/injection, schedule: Q01DX009 (ip), vehicle: saline): 0 of 6 | survivor count (dose: 10.0 mg/kg/injection, schedule: Q01DX009 (ip), vehicle: saline): 0 of 6

Cc1ccc(NC(=O)Oc2ccc(Br)cc2Br)c(Cl)c1
T/C (dose: 100.0 mg/kg/injection, schedule: Q01DX009 (ip), vehicle: saline with Tween-80): 96, 97 (2×), 101 % of control | survivor count [5]: 5 of 6 and 3 of 3 | survivor count [6]: 3 of 3 and 6 of 6

O=Cc1nc2ccccc2cc1CCl
survivor count [7]: 0 of 6 | survivor count [8]: 3 of 6

CCCCCCCCc1ccc(NC(N)=S)cc1
survivor count (dose: 6.25 mg/kg/injection, schedule: Q01DX009 (ip), vehicle: saline with Tween-80): 3 of 3 | survivor count [9]: 1 of 3 | survivor count (dose: 50.0 mg/kg/injection, schedule: Q01DX009 (ip), vehicle: saline): 0 of 3 | survivor count (dose: 100.0 mg/kg/injection, schedule: Q01DX009 (ip), vehicle: saline): 0 of 3 | survivor count [10]: 0 of 3

O=S(=O)(Cl)c1cc(Cl)ccc1Cl
survivor count [11]: 2 of 6 | survivor count [1]: 2 of 6 | survivor count [12]: 0 of 6

NC1=NC(=O)/C(=C/c2ccccc2)S1
survivor count [6]: 6 of 6

CC(C)CC([NH-])C(=O)O.CC(C)CC([NH-])C(=O)O.CC(C)CC([NH-])C(=O)O.[Co+3] (centres undefined)
survivor count (dose: 100.0 mg/kg/injection, schedule: Q01DX009 (ip), vehicle: water): 6 of 6 | survivor count (dose: 200.0 mg/kg/injection, schedule: Q01DX009 (ip), vehicle: water): 6 of 6 | survivor count (dose: 400.0 mg/kg/injection, schedule: Q01DX009 (ip), vehicle: water): 0 of 6 | survivor count (dose: 400.0 mg/kg/injection, schedule: Q04DX003 (ip), vehicle: water): 4 of 6

CCOC(CN)C(Cl)(Cl)Cl (centres undefined)
survivor count (dose: 400.0 mg/kg/injection, schedule: Q01DX009 (ip), vehicle: saline): 6 of 6

Cc1nc2c(nc1C)C(=O)C1C3c4ccccc4C(c4ccccc43)C1C2=O (centres undefined)
survivor count [13]: 6 of 6

CCCCCCCCCCCC(=O)Nc1cc(C)ccc1N=Nc1ccc(C)cc1
survivor count [11]: 6 of 6 | survivor count [1]: 6 of 6

Cc1cc([N+](=O)[O-])cc([N+](=O)[O-])c1Cl
survivor count [1]: 0 of 6 | survivor count [14]: 0 of 6

CCO/C=C/c1ccccc1
survivor count [15]: 3 of 6

Cc1cc(C)n(CO)n1
survivor count [12]: 4 of 6

CCCCCCCCCCCCCCCC(=O)N(CCCCN(CCCN(C)C)C(=O)CCCCCCCCCCCCCCC)CCCN(C)C
survivor count (dose: 200.0 mg/kg/injection, schedule: Q04DX003 (ip), vehicle: saline with Tween-80): 0 of 6 | survivor count [15]: 0 of 6

O=C(C[n+]1ccccc1)c1ccc(S(=O)(=O)c2ccccc2)cc1
survivor count [16]: 1 of 6 | survivor count [14]: 0 of 6

COc1cc2c3c(c1)C(=O)CCN3CCC2
survivor count [14]: 0 of 6

C/C(=C\Cl)CN(C)S(=O)(=O)c1ccc(Br)cc1
survivor count [12]: 1 of 6

Cc1cnc(=S)[nH]c1N
survivor count [17]: 3 of 6

CCCCCCCCCCCCCCC[n+]1ccc(C#N)cc1
survivor count (dose: 20.0 mg/kg/injection, schedule: Q01DX009 (ip), vehicle: acetone): 4 of 6 | survivor count (dose: 75.0 mg/kg/injection, schedule: Q01DX001 (ip), vehicle: saline): 1 of 6 | survivor count [7]: 0 of 6 | survivor count [8]: 0 of 6

CC(=O)OC1OC2COC(C)(C)OCC2C(OC(C)=O)C1OC(C)=O (centres undefined)
survivor count (dose: 400.0 mg/kg/injection, schedule: Q01DX001 (ip), vehicle: saline with Tween-80): 3 of 3

CC1=C[P+](C)(Cc2ccccc2)CC1 (centres undefined)
survivor count [3]: 0 of 6

CCn1c[n+](-c2ccccc2)cn1
survivor count [3]: 1 of 6 | survivor count [4]: 0 of 6

Nc1nc2nc(C(=O)O)cnc2c(=O)[nH]1
survivor count (dose: 50.0 mg/kg/injection, schedule: Q04DX003 (ip), vehicle: saline): 2 of 6 | survivor count (dose: 100.0 mg/kg/injection, schedule: Q04DX003 (ip), vehicle: saline): 3 of 6 | survivor count (dose: 200.0 mg/kg/injection, schedule: Q04DX003 (ip), vehicle: saline): 1 of 6 | survivor count [17]: 0 of 6

CCc1ccc(C)[n+](N)c1
survivor count [3]: 2 of 4 | survivor count [4]: 0 of 4

O=C1CSC(c2ccccc2)N1 (centres undefined)
T/C [13]: 134 % of control

O=C(N/N=C/c1cccc([N+](=O)[O-])c1)c1ccc(O)cc1
survivor count (dose: 400.0 mg/kg/injection, schedule: Q04DX002 (ip), vehicle: Klucel (hydroxypropylcellulose) (HPC)): 3 of 3

O=C(CC(O)(C(F)(F)F)C(F)(F)F)c1ccc(C(=O)CC(O)(C(F)(F)F)C(F)(F)F)cc1
survivor count [2]: 2 of 6

O=C1CCC(CC2CCCCC2)CC1
T/C [15]: 127 % of control

NC(=S)NS(=O)(=O)c1ccc(N)cc1
T/C [3]: 127 % of control [3 of 4 alive]

CCN(CC)CC(=O)NCC(CCN1CCOCC1)(CC(C)C)c1cccc2ccccc12 (centres undefined)
survivor count [10]: 6 of 6 | survivor count [17]: 0 of 6

O=C1CCc2c1cc(O)c1ccc(S(=O)(=O)O)cc21
survivor count (dose: 80.0 mg/kg/injection, schedule: Q01DX001 (ip), vehicle: saline): 2 of 6

N#CCc1ccc(C(=O)O)cc1
survivor count (dose: 400.0 mg/kg/injection, schedule: Q01DX001 (ip), vehicle: carboxymethylcellulose (CMC)): 1 of 4

O=c1cc(-c2ccccc2)[nH]c(=S)[nH]1
survivor count [5]: 6 of 6

S=C=NCc1cccc(CN=C=S)c1
survivor count (dose: 12.5 mg/kg/injection, schedule: Q01DX009 (ip), vehicle: saline with Tween-80): 3 of 6 | survivor count [9]: 1 of 6 | survivor count [13]: 0 of 6 | survivor count [16]: 0 of 6 | survivor count [14]: 0 of 6
